Data: publication doi:10.64898/2025.12.11.692727

By UniProt entry, the sequences of proteins in these tests, tags left out. Where a name states a change or a piece, a line headed by the entry shows the natural chain unless it says otherwise.
UniProt P09874: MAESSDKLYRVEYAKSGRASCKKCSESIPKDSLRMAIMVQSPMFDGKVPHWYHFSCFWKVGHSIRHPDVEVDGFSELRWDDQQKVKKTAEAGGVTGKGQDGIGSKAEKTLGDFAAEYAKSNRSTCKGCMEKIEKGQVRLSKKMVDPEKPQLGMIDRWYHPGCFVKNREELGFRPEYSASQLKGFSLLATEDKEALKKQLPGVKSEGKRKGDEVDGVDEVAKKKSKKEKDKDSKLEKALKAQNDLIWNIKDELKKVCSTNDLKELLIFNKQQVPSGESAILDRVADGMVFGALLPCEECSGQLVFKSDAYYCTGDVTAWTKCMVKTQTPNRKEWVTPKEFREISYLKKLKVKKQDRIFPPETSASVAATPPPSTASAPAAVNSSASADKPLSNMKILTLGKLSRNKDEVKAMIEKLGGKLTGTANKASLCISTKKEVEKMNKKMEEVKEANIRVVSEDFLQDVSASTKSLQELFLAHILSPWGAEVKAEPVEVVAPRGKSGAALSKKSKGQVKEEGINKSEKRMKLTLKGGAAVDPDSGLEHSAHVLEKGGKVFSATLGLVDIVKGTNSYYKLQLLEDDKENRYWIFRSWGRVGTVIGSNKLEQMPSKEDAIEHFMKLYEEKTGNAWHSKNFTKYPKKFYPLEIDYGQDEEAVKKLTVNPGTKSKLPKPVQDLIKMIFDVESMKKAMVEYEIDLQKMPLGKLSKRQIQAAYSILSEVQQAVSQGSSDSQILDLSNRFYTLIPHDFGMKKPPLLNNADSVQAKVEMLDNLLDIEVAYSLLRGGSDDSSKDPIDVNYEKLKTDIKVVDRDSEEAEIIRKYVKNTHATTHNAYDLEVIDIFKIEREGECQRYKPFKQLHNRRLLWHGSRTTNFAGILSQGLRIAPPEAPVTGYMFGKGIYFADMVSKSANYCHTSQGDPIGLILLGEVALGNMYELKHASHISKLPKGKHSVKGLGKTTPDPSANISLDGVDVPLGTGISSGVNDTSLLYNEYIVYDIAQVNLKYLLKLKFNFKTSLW
UniProt Q9Y6I9: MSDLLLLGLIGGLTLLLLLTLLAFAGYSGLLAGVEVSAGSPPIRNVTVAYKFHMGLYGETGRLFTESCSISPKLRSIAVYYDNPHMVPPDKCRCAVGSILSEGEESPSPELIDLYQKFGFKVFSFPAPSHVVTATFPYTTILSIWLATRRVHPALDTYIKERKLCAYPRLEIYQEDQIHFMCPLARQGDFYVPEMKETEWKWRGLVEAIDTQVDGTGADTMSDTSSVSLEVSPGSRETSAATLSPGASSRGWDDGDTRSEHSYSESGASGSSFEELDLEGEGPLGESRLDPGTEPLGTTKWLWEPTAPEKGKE

Target: PARP1-GFP (UniProt P09874)
Assay: co-IP

Substance: TEX264-Δα-Helix (from UniProt Q9Y6I9)
- binding: binds

These are yes or no findings as the source states them, for the method shown. Binding seen in cells or lysates may run through a third protein. A result given as binding can be weak or reduced; the word gives no strength.
